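Whole-cell assay for inhibitors of Mycobacterium tuberculosis growth, labelled Cornell in the record; the read-out is not stated. The concentration is filed as 10 mM, unlikely as a test dose, so the dose is not known. Higher means stronger inhibition (inferred from two other growth screens of the library). Of about 53,000 compounds tested this way, about 900 (1.7%) reached 50% or more in at least one test.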

The filed quantity is “Percent Effect” (%).
The controls that fix the scale are not given in the record; negative values are as filed.
Compounds were drawn at random from those tested, without regard to their results.

{"compound": "CN(C)c1nccc(C2CCCN(C(=O)CO)C2)n1", "stereo": "stereo not drawn", "percent effect": -66.66}
{"compound": "CCc1nc(CN2CCCC(N(C)CCn3cccn3)C2)no1", "stereo": "stereo not drawn", "percent effect": -2.274}
{"compound": "CN(C)Cc1cnc2n1CCN(C(=O)NC1CCCC1)CC2.O=C(O)C(F)(F)F", "percent effect": 24.57}
{"compound": "CCC(=O)N1CCC2(CC1)COCCN2Cc1ccc(F)cc1.O=C(O)C(F)(F)F", "percent effect": 13.05}
{"compound": "COc1ccc(Oc2cccnc2)cc1CN1CCCC1", "percent effect": 0.3381}
{"compound": "CCn1ccnc1CN(C)c1cc(C2CCCNC2)nc(C)n1", "stereo": "stereo not drawn", "percent effect": -55.44}
{"compound": "Cc1cc(C)n(CC(C)Nc2nc(-c3ccncc3)nc3c2CNC3)n1", "stereo": "stereo not drawn", "percent effect": -14.29}
{"compound": "Cc1[nH]ccc1C(=O)N[C@H]1CN(S(C)(=O)=O)C[C@@H]1C1CC1", "percent effect": -5.342}
{"compound": "O=C(NCc1cn2c(n1)CN(CC1CCOCC1)CC2)C1CCC1.O=C(O)C(F)(F)F", "percent effect": 22.47}
{"compound": "[H][C@@]12CN(c3cnccn3)C[C@]1([H])N(CCCc1ccc(F)cc1)C(=O)O2", "percent effect": 11}
{"compound": "CN1CCOC(C)(C(=O)N2CCN(C3CCCC3)CC2)C1", "stereo": "stereo not drawn", "percent effect": -58.81}
{"compound": "CCc1ccccc1CNC(=O)CCc1cnn(C)c1", "percent effect": 12.21}
{"compound": "Cc1nnc(NC(=O)NCCCN2CCC(C(N)=O)CC2)s1", "percent effect": 3.412}

For reference, 2 entries once more:

compound,percent effect
Cc1nnc(NC(=O)NCCCN2CCC(C(N)=O)CC2)s1,3.412
CN1CCOC(C)(C(=O)N2CCN(C3CCCC3)CC2)C1 (stereo not drawn),-58.81

Measurements from “University of Dundee, Small-Polar-MMV Screening Library” (2021), ChEMBL document CHEMBL3988442.